Reference: PubChem BioAssay AID504786 (Drosophila RNAi Screening Center, 2011)

Purpose: 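Positive regulators of HIF-driven reporter output in Drosophila cells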 (primary screen)
Cell system: Drosophila S2 cells with a stable HIF luciferase reporter
Knock-down reagent: long dsRNA against Drosophila genes, about 0.2 µg dsRNA per well of a 384-well plate
Time to read-out: three days of knock-down, then 20 h of DFO before reading
Challenge: desferrioxamine (DFO) at 100 µM, an iron chelator that mimics hypoxia, for 20 h
Measurement: 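HIF reporter luminescence in cells given 100 µM DFO for 20 h, using the mouse ldh-a hypoxia-response element, scored as per-plate z-scores; higher means greater loss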
Scale: z-score: higher = stronger loss of HIF reporter signal
The screen tested about 21,000 reagents; this is an unselected part of those that have a named target and a result. 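Primary screen; positive scores mean lost reporter signal, so the sign may be inverted from the usual convention.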 Further read-outs or replicates are left out here.

For CG42329 [DRSC00373], the values are z-score, replicate 1 = -0.3. CG42329 [DRSC00682] gave z-score, replicate 1 = -0.3. Silencing of CG13306 [DRSC09976] resulted in: z-score, replicate 1 = -0.3. With knock-down of RagA-B [DRSC14450] the results were z-score, replicate 1 = 0.1. For CG33792 [DRSC05355], the entry reads z-score, replicate 1 = -0.2. ninaB [DRSC16807] showed z-score, replicate 1 = -0.3.

With knock-down of Wsck [DRSC13682] the results were z-score, replicate 1 = -0.2. With knock-down of Rat1 [DRSC02044], the record shows z-score, replicate 1 = 0. HUWE1 [DRSC20089] scored z-score, replicate 1 = -0.4.

4 entries from above, reformatted.
CG13306 [DRSC09976]
- z-score, replicate 1: -0.3

RagA-B [DRSC14450]
- z-score, replicate 1: 0.1

CG33792 [DRSC05355]
- z-score, replicate 1: -0.2

ninaB [DRSC16807]
- z-score, replicate 1: -0.3

Additional records follow:
Silencing of Su(z)2 [DRSC07558] gave: z-score, replicate 1 = 2. With knock-down of CG11249 [DRSC11645] the results were z-score, replicate 1 = -0.3. For tRNA:Leu-CAA-2-3 [DRSC13633] the deposit lists z-score, replicate 1 = -0.2. CG10616 [DRSC09750] gave z-score, replicate 1 = -0.3. Knock-down of Sema1b [DRSC07550] resulted in: z-score, replicate 1 = -0.4. Knock-down of CG14313 [DRSC14792] resulted in: z-score, replicate 1 = -0.6.

Cib2 [DRSC04535] gave z-score, replicate 1 = -0.3. Depletion of S [DRSC00785] came out at: z-score, replicate 1 = 0.7. With knock-down of CG6659 [DRSC20003], the screen gave z-score, replicate 1 = -0.3. CG15465 [DRSC18048] gave z-score, replicate 1 = -0.3. Against Crk [DRSC17163] the deposit lists z-score, replicate 1 = -0.2. Against Elp5 [DRSC08547], the entry reads z-score, replicate 1 = -0.3.

Knock-down of rad (retired record) [DRSC19687] gave: z-score, replicate 1 = -0.3. Knock-down of CG8319 [DRSC16407] gave: z-score, replicate 1 = 0.2. Knock-down of Ppat-Dpck [DRSC09744] gave: z-score, replicate 1 = -0.1. Depletion of Obp19d [DRSC20569] resulted in: z-score, replicate 1 = -0.3. Against CG13813 [DRSC10068], the values are z-score, replicate 1 = -0.2. Hcf [DRSC17143] showed z-score, replicate 1 = -0.2.
